Assay [1] addresses recombinant human C5 (human) (UniProt P01031). In words: Western blot, C5 in FS293 culture medium, reducing SDS-PAGE. (In general: In western blotting, separated proteins are transferred to a membrane and probed.)
Assay [2] deals with human C5 point mutant E48A (human) (UniProt P01031). The assay is described as above.
For assay [3], the target named is recombinant human C5 (human) (UniProt P01031). As to the kind of experiment: Western blot.
Assay [4] deals with human C5 point mutant K109A (human) (UniProt P01031). In words: Western blot, C5 in FS293 culture medium, reducing SDS-PAGE.

The chains behind the UniProt entries cited, without tags or fusion partners. Where a name states a change or a piece, a line headed by the entry shows the natural chain unless it says otherwise.
UniProt P01031: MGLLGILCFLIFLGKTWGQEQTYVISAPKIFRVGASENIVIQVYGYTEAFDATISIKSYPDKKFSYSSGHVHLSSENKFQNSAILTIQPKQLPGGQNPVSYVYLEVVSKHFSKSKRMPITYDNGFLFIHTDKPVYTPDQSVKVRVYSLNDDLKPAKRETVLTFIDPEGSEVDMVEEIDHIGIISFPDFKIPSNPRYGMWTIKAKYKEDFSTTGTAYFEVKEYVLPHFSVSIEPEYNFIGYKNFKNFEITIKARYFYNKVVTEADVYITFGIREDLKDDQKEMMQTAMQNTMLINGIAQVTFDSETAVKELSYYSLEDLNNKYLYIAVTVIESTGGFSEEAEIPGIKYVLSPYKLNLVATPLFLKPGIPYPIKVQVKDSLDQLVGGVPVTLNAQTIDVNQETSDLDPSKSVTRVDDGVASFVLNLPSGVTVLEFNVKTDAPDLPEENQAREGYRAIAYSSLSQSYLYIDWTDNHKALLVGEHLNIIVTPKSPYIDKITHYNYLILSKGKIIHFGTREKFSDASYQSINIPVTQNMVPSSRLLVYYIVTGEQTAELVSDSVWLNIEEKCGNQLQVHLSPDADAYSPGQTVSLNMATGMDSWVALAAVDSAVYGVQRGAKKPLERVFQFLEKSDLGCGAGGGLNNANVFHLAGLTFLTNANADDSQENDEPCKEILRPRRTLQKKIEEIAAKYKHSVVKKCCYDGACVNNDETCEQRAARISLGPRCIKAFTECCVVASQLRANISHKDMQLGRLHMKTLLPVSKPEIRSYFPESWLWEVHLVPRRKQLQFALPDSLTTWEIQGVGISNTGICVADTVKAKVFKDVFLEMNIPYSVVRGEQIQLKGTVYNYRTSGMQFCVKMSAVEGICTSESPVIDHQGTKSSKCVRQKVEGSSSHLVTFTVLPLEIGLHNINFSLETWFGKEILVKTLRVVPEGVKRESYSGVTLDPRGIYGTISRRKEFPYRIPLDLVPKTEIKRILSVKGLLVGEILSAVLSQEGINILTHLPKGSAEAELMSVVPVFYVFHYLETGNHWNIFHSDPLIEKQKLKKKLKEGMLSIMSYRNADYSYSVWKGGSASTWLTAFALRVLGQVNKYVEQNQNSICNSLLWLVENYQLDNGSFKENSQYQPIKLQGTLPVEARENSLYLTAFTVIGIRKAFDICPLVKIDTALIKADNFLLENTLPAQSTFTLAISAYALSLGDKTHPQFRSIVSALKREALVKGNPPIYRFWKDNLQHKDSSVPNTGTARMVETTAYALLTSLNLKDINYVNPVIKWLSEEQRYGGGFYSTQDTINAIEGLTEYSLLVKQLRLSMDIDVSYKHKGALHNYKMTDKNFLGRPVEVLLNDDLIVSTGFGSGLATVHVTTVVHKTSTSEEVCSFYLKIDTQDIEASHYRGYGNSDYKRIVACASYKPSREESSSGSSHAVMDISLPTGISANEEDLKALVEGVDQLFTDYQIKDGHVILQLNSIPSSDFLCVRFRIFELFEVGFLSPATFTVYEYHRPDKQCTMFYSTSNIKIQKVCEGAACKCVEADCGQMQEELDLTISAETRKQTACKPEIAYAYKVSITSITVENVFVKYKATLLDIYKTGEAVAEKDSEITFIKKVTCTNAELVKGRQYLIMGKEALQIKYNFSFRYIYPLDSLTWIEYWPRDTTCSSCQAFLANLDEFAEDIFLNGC

Substitutions are numbered along the chain they refer to. Results are given in words; binding and its absence hold for the method and conditions named. Some results given as binding are weak or reduced against the parent protein; the word gives no strength.

B1: CFA0366 (antibody, V domains shown)
VH: QSLEESGGDLVKPGASLSLTCTAAGLDFSSSYYMCWVRQAPGKGLEWIACIYAGSSGIIYYANWAKGRFTISRPSSTTVTLQMTSLTAADTATYFCATYPTYGDGGHAFNLWGPGTLVTVSS
VL: AQVLTQTPSSVSAAVGGTVTINCQSSQSVYSSDYLSWYQQKPGQPPKLLIYEASKLASGVPPRFSGSGSGTQFTLTISGVQCDDAATYYCQGTYYSSGWYFAFGGGTEVVVK
As for B1, in assay [1], the binding entry is reported as “binds”.

B2: CFA0305 (antibody, V domains shown)
VH: QSLEESGGDLVKPGASLAVTCTASGFSSSSSYYMCWVRQAPGKGLEWIGCIYTGSGATYYASWAKGRFTISKTSSTTVTLQMTSLTVADTATYFCASDGGYVTPTHAMYLWGPGTLVTVSS
VL: DVVMTQTPASVSAAVGGTVTIKCQASQNIGSDLAWYQQKPGQPPRLLIYGASKLASGVSSRFSGSGSGKEFTLTISDLECADAVTYYCQCTFVGSSYGNAFGGGTEVVVK
For B2, the binding result in assay [1], in assay [2] and in assay [3] was “binds” each time.

B3: CFA0672 (antibody, V domains shown)
VH: QSVEESGGRLVTPGTPLTLTCTASGFSLSGNAINWVRQAPGKGLEWIGCIYTGSDTTYYATWAKGRFTISKTSTTVDLKIASPTTEDTATYFCARGSGLWGPGTLVTVSS
VL: DVVMTQTPASVSAPVGGTVTIKCQASQNIYSLLAWYQQKPGQPPKLLIYHTSDLASGVPSRFRGSGSGTEFTLTISDLECADAATYYCQCTAYGSSDVGGTFGGGTTVVVE
For the molecule B3, the binding entry in assay [4] and in assay [1] was “binds” each time.

B4: CFA0599 (antibody, V domains shown)
VH: QSVEESGGRLVTPGTPLTLTCTVSGLSLSDNTMTWVRQAPGKGLEWIGIISFGGDAYYASWAKGRFPISKTSTTVDLRITSPTTEDTATYFCARVGAGNIFWYFDLWGPGTLVTVSS
VL: AYDMTQTPASVEVSVGGTVTIKCQASESIYSALAWYQQKPGQPPKLLIYSASTLASGVPSRFKGSGSGTEYTLTISDLECADAATYYCQQYYSSTNVHNSFGGGTTVVVE
As for B4, the binding entry in assay [4] and in assay [1] was “binds” each time.

B5: CFA0666 (antibody, V domains shown)
VH: QSVEESGGRLVTPGTPLTLTCTVSGFSLSTYAMGWVRQAPGKGLEWIGTIDTGDNSFYANWAKGRFTISKTSTTVDLKITSPTAEDTATYFCARNDGSVYNLFNLWGPGTLVTVSS
VL: DVVMTQTPASVSAAVGGTVTIKCQASENIYSALSWYQQKPGLRPRLLIYYASTLASGVPSRFKGSRSGTEFTLTISDLECADAATYYCQQYYDINSVDNTFGGGTKVVVE
In the case of B5, the binding entry in assay [4] and in assay [1] was “binds” in each case.

B6: CFA0675 (antibody, V domains shown)
VH: B5 VH with K70R
VL: B5 VL with T85S
Turning to B6, the binding result in assay [4], in assay [1] and in assay [2] was “binds” throughout.

B7: CFA0307 (antibody, V domains shown)
VH: QSLEESGGGLVKPGASLTLTCKASGIDFSNFYYICWVRQAPGKGLDLIACIYTVSGYTYYASWAKGRLTISKTSSTTVTLQMTSLTAADTATYFCARDLHAGITNLWGPGTLVTVSS
VL: AIEMTQTPFSVSAAVGGTVTIKCQASQNIYSNLAWYQQKPGQRPKLLIYGASNLESGVPSRFKGSGSGTEYTLTISDLECADAATYYCLQGYSYSNVDDAFGGGTEVVVK
For B7, the binding result in assay [1] is “binds”.

B8: CFA0501 (antibody, V domains shown)
VH: QSVEESGGRLVTPGTPLTLTCTASGFSLSSYYMNWVRQAPGKGLEWIGMIYGSGATYYASWAKGRFTISKTSSTTVDLKMTSLTTEDTATYFCARQIYSGDNNDNFWGPGTLVTVSS
VL: AYDMTQTPASVEVAVGGTVTINCQASESISNWLAWYQQKPGQRPKLLIYRASTLASGVSSRFKGSGSGTQFTLTISGVECDDAATYYCQQDYSSSNVDNTFGGGTKVVVE
Turning to B8, in assay [1], the binding result is “binds”.

B9: CFA0538 (antibody, V domains shown)
VH: B8 VH
VL: B8 VL with K106T
As to B9, the binding entry in assay [1] is listed as “binds”.
